Article PMC5897347
No constants are given. Whether binding was seen depends on the method and setting. Binding seen in cells or lysates may run through a third protein. Here binding means that the protein was enriched with, or labelled near, the bait; the list need not be complete.

The chains behind the UniProt entries cited, without tags or fusion partners.
UniProt Q99684: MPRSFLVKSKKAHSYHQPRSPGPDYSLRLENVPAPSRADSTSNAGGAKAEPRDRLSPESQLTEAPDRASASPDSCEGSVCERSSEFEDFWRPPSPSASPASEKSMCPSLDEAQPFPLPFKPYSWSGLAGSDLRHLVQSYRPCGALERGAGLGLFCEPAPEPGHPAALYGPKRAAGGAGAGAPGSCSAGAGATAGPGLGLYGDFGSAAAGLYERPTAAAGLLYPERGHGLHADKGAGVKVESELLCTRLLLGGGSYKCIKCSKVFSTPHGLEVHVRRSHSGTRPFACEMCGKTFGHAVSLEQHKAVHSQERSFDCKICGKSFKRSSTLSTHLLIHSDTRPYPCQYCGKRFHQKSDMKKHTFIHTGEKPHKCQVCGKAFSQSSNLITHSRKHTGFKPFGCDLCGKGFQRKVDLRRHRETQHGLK
UniProt Q99873: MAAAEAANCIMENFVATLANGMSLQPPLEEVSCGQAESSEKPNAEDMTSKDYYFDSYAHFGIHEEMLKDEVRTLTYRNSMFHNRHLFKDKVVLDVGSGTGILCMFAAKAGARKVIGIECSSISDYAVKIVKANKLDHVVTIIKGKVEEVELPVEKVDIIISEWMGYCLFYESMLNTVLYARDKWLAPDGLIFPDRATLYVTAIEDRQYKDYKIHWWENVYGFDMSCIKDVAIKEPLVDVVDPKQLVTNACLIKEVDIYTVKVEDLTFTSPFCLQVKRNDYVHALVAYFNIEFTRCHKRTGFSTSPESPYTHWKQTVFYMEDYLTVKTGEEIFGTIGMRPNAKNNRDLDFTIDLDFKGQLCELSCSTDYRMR
UniProt Q13547: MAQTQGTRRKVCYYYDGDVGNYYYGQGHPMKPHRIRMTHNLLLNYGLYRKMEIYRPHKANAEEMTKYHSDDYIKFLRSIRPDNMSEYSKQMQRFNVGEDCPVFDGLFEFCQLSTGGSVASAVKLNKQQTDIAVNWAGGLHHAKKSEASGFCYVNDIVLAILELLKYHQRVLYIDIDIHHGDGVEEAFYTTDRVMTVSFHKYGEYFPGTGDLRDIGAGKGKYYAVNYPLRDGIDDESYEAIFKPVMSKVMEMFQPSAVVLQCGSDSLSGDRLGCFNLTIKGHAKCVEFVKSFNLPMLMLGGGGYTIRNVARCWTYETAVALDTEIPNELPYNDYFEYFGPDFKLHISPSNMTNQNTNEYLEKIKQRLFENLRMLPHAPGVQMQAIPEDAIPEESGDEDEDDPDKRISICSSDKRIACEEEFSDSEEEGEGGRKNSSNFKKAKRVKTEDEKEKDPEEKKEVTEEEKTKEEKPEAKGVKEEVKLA
UniProt Q92878: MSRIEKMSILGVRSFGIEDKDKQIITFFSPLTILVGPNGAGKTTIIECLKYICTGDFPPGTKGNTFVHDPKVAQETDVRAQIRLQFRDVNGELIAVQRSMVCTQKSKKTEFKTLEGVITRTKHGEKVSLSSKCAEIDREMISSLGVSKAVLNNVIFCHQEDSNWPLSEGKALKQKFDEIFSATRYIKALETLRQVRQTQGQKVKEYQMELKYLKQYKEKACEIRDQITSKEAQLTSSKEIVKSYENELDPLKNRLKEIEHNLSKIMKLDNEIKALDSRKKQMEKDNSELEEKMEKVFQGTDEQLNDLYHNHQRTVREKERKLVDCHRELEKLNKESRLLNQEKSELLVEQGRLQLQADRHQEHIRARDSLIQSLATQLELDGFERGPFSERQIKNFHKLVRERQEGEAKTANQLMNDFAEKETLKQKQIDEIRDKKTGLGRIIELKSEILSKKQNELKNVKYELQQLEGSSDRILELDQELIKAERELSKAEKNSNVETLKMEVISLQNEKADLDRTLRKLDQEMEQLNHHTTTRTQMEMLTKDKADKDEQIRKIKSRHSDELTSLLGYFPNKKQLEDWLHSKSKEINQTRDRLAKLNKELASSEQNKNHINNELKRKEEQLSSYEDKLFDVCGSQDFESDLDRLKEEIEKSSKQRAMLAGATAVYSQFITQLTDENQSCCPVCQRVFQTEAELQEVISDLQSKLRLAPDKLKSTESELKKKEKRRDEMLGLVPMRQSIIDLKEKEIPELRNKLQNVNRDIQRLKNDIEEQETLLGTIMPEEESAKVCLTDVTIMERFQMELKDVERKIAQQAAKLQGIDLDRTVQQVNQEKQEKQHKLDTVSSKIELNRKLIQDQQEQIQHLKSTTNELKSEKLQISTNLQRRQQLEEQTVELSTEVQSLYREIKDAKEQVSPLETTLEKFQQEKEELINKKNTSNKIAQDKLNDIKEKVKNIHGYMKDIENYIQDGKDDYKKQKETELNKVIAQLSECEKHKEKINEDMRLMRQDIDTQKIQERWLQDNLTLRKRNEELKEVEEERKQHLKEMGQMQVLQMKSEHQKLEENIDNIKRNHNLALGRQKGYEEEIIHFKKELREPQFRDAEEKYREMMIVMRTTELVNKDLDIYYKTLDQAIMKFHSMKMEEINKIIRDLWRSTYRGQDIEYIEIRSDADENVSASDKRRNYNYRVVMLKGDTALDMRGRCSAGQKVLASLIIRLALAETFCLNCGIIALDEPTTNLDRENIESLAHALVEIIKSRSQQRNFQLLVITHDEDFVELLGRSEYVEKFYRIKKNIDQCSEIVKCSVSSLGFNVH
UniProt Q9UKL0: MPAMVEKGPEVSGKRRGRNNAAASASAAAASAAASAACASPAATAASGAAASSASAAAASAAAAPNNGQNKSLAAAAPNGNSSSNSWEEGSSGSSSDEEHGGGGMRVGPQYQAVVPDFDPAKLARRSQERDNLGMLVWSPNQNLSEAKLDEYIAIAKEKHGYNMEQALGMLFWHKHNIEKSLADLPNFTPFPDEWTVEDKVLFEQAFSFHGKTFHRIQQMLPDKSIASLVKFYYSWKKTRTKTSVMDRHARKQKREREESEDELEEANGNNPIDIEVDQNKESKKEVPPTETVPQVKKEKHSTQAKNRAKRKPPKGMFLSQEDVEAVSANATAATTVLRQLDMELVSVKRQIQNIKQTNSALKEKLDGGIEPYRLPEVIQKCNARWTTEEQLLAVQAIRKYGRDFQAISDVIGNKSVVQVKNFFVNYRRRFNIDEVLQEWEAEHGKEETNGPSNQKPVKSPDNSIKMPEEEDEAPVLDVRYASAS
UniProt Q92769: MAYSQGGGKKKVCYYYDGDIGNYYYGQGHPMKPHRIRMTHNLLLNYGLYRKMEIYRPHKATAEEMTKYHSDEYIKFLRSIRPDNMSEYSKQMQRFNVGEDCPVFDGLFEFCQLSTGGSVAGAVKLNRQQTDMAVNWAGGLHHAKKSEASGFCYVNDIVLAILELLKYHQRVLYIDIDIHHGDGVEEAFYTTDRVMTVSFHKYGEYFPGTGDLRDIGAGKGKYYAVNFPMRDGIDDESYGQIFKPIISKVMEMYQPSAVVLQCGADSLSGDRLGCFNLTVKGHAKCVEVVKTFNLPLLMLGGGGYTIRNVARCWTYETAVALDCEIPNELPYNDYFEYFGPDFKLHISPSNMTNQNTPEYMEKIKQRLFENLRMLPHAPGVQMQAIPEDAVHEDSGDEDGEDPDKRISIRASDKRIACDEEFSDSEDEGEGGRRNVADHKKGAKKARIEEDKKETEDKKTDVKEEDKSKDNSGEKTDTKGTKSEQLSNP

Target: GFI1-Flag fusion protein (full length GFI1) (UniProt Q99684)
Assay: affinity purification with mass spectrometry; GFI1-Flag immunoprecipitated (M2 anti-FLAG, agarose) from 293T cells; co-precipitated proteins run on a polyacrylamide gel, in-gel trypsin digestion, LC-MS/MS; scored against CRAPome controls (SAINTexpress)

Row | binding | Substance
1 | binds | Protein arginine methyltransferase 1 (PRMT1) (from UniProt Q99873 1-371) (enzyme)
2 | binds | DNA-PK (from UniProt P78527 1-4128) (enzyme)
3 | binds | HDAC1 (from UniProt Q13547 1-482) (enzyme)
4 | binds | RAD50 (from UniProt Q92878 1-1312)
5 | binds | CoRest1 (from UniProt Q9UKL0 1-485)
6 | binds | CoRest3 (from UniProt Q9P2K3 1-495)
7 | binds | HDAC2 (from UniProt Q92769 1-488) (enzyme)
